Target: Interleukin-8 (IL8, CXCL8), C-terminal His-tagged (Homo sapiens) (UniProt P10145)
Experiment: binding assay
Conditions: 2'-F G, 2'-OMe A/C/U, 5' C6NH2, 3' idT; TR-FRET, 5 nM IL8, protein-limited; bead flow 20 nM; purified recombinant protein; protein details: C-terminal 6xHis (Sino Biological); label: Alexa Fluor 647

Protein sequences, listed by entry. Tags and fused reporters are not part of them. Residues count along the entry.
UniProt P10145, 28-99: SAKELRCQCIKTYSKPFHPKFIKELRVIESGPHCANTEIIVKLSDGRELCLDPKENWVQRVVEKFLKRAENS

UACGGUGGGAAAUGUGAGAUGGGUUGCCGUAUUUU [Aptamer 8]
Kd: 2 nM
